In US6482805B2 (Parker Hughes Institute, priority 1998, dated 2002):

System: normal human endocervical epithelial cells
Type: cell-based
Details: ratio of IC50 to EC50
Experimental: The potential cytotoxicity of aryl phosphate derivatives of bromo-methoxy ZDV in comparison to N-9, against normal human ectocervical and endocervical epithelial cells (Clonetics Corporation, San Diego, Calif.), was measured using MTT (3-[4,5-dimethylthiazol-2-yl]-2,5-diphenyl tetrazolium bromide) cell viability assays (Boehringer Mannheim Corp., Indianapolis, Ind.) [see, D'Cruz O J, et al., Mol Hum Reprod 1999; 5:421-432; D'Cruz O J, et al., Contraception 1999; 59 (in press); and Uckun F M, et al., Antimicrob Agents Chemther 1998; 42:383-388]. Briefly, exponentially growing ectocervical and endocervical epithelial cells were seeded into 96-well plate at a density of 2×10^5 cells/well and incubated for 24 h at 37° C. prior to drug exposure. On the day of treatment, culture medium was carefully aspirated from the wells and replaced with fresh medium containing drug concentrations ranging from 3.9 μM to 1000 μm. Triplicate wells were used for each treatment. The cells were incubated with the various compounds for 24 hours at 37° C. in a humidified 5% CO2 atmosphere. […] The absorbance of each well was measured in a microtiter reader at 540 nm and a reference wavelength of 690 nm. […] The percent cell survival was calculated using the formula: % survival=live cell number[test]/live cell number[control]×100. The results were expressed as IC50 values. […]

| Compound | SI (endocervical cells) |
| --- | --- |
| CCCCCCCCCc1ccc(OCCOCCOCCOCCOCCOCCOCCOCCOCCO)cc1 [Compound N-9, nonoxynol-9, reference compound] | 0.19 |
| COC(=O)C(C)NP(=O)(OCC1OC(N2C(=O)NC(=O)C(C)(Br)C2OC)CC1N=[N+]=[N-])Oc1ccc(Br)cc1 (centres unmarked) [WHI-07, 5-Bromo-6-methoxy-5,6-dihydro-3′-azidothymidine-5′-(p-Bromophenyl Methoxyalaninyl Phosphate)] | 62.4 |
